Test: general procedure: Fmoc solid-phase peptide synthesis in flow; Fmoc-PAL-PEG-PS (substitution 0.16 mmol/g); TBTU/DIEA; cyclization with TBTU, BOP or HATU
Settings: whole synthesis, scale of the general procedure 0.4 to 1.2 g resin

cyclo[-D-Val-Arg-Gly-Asp-Asp(-εAhx-Cys-NH2)-]
outcome: The method failed to give the expected product as more than five different compounds were identified

cyclo[-D-Val-Arg-Gly-Asp-Glu(-εAhx-Cys-NH2)-]
crude yield: above 85%
isolated yield: around 40%
